This is one part of the list.
Each target was assayed with Cc1ccc(C(=O)N(CCCN)[C@@H](c2nc3cc(Cl)ccc3c(=O)n2Cc2ccccc2)C(C)C)cc1 [ispinesib] (assay: log2 fold change, soluble protein after heating vs DMSO (PISA); higher = thermal stabilisation; K562 cells, 10 uM, 30 min; active = over 0.2 and 3.5 SD of the protein, either way, in both replicates (recomputed)).
Summary of the method: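 K562 cells at 2×10^6 cells/mL were treated for 30 min with 10 μM compound, and aliquots were heated for 3 min over 48°C-58°C before pooling. Extraction used PBS with 0.5% NP-40 at 4°C, and soluble protein was the supernatant after 21,000xg for 90 min, measured by TMTpro 16plex LC-MS/MS with channel sums equalised. Thermal stability values, relative to control samples and from duplicates, are log2 fold changes.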

Sequences of proteins named here, by UniProt entry; tags and fusion partners are left off. A change or cut given only in a name is not applied to a line headed by its entry.
UniProt Q15643: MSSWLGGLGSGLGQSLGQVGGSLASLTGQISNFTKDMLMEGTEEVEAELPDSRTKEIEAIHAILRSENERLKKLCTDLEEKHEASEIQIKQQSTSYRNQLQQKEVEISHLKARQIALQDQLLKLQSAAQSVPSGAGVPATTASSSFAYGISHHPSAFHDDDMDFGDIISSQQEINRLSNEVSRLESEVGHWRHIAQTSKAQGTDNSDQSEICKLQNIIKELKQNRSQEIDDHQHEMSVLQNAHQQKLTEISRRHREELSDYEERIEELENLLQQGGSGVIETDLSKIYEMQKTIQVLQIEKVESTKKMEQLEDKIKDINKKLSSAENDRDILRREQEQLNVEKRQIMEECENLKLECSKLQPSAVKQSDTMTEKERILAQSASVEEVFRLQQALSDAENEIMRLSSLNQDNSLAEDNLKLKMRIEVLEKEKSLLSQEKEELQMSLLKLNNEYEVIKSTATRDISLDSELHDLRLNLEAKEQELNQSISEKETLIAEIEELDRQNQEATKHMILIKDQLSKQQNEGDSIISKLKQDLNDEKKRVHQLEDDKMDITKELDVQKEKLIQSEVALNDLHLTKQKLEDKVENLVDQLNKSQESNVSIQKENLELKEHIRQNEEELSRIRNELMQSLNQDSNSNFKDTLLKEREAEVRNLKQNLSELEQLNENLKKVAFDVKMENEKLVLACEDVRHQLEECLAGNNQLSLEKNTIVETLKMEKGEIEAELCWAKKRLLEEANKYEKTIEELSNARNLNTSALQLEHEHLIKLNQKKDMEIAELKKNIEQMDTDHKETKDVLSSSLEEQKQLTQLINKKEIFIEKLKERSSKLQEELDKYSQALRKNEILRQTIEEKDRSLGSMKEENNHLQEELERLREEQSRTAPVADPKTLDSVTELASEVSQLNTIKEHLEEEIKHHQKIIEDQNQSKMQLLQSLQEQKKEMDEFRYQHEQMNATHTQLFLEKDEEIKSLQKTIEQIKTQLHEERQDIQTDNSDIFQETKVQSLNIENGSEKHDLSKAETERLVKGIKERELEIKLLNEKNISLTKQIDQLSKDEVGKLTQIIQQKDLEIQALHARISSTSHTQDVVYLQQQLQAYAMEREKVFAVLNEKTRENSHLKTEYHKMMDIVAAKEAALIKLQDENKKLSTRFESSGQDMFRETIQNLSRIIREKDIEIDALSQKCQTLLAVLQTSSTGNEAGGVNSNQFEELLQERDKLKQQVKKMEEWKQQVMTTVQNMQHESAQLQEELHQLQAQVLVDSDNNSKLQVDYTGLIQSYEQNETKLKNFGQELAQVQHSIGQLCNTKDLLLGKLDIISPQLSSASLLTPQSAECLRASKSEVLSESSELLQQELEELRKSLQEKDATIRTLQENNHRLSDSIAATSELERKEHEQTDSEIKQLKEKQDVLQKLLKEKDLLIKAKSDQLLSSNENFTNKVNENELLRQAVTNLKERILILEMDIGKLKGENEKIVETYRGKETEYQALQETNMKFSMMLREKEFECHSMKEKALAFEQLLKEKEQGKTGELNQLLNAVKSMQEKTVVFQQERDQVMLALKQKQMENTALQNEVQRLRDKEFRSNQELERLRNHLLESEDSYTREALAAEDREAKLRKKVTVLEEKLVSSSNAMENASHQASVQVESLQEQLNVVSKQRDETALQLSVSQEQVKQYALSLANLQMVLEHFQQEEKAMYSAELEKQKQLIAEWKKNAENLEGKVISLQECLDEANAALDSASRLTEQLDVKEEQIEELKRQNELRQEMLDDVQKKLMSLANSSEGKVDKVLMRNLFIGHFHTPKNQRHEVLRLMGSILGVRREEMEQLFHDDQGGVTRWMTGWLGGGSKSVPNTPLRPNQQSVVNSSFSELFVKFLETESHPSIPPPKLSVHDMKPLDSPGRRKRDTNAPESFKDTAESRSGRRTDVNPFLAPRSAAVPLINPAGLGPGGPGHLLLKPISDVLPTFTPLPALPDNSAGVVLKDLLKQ
UniProt Q9BW30: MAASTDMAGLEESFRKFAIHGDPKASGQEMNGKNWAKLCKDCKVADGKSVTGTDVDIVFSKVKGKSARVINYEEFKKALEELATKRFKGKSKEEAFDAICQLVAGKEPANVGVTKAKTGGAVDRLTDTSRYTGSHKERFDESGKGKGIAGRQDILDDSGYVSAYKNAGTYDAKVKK
UniProt Q9H3S4: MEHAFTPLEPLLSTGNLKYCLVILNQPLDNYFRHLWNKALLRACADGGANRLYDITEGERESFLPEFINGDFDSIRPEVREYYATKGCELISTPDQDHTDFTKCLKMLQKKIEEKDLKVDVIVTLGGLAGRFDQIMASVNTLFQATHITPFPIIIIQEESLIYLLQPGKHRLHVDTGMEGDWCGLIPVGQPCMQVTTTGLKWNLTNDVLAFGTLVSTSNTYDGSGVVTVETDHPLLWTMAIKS
UniProt Q9C037: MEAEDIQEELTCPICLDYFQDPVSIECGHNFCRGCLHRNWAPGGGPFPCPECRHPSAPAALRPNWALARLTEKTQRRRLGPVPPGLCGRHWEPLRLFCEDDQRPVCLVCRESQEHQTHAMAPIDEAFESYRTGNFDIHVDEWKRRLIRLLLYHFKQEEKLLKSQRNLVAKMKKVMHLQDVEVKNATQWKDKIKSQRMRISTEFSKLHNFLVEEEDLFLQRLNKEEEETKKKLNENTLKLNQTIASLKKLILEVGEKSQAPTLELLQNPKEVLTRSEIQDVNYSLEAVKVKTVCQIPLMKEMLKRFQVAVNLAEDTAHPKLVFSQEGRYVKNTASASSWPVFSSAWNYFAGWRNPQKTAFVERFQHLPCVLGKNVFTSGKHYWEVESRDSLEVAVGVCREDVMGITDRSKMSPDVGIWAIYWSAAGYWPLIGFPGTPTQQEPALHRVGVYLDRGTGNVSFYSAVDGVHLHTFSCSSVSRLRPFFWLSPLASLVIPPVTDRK
UniProt P36406: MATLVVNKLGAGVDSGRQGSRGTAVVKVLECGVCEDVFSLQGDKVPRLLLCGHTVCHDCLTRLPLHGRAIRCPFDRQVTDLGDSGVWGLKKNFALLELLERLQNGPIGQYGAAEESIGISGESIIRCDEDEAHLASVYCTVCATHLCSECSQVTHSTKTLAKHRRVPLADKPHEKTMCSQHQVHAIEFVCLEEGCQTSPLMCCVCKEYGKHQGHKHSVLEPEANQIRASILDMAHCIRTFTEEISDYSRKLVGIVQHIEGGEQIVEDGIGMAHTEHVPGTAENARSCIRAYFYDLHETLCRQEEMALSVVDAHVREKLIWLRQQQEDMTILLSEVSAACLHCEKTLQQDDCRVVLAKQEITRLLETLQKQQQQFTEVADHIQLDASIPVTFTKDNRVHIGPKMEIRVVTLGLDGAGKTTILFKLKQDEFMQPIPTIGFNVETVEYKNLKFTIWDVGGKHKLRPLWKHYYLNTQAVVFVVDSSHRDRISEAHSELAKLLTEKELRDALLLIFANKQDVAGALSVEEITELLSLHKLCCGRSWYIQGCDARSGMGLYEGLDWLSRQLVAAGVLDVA
UniProt O15164: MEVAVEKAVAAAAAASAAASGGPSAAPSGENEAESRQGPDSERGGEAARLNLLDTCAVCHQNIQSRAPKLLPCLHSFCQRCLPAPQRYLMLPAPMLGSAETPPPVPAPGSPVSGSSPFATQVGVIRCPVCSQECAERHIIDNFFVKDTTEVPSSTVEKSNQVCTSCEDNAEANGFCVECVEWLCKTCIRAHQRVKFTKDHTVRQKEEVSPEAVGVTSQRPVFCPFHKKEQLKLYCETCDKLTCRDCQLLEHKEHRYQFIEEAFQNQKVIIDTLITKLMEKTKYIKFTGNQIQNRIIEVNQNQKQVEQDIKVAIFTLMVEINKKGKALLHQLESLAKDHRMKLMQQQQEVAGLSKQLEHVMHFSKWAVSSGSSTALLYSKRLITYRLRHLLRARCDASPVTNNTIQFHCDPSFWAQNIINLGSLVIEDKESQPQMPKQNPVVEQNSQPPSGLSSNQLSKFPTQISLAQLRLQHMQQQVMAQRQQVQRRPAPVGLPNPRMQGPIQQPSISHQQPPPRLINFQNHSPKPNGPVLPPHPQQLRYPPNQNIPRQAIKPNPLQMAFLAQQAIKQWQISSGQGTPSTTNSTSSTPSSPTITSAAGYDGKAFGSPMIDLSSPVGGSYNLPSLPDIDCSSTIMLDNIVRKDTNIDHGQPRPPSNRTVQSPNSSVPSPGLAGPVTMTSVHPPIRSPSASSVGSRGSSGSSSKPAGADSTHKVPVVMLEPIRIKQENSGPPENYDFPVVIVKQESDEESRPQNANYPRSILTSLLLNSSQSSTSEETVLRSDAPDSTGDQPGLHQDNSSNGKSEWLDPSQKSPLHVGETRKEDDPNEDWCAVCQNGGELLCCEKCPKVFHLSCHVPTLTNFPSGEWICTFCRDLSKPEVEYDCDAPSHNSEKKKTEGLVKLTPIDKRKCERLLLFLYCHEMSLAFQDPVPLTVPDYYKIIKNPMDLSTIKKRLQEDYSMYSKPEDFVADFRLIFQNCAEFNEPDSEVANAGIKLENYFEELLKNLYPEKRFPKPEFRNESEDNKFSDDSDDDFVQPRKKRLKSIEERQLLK
UniProt Q9Y5R8, whole entry, looked up: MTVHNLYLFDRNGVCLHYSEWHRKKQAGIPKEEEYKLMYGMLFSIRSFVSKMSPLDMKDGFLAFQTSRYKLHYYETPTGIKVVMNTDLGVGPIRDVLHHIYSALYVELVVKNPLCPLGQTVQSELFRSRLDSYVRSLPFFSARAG
UniProt Q9BSV6: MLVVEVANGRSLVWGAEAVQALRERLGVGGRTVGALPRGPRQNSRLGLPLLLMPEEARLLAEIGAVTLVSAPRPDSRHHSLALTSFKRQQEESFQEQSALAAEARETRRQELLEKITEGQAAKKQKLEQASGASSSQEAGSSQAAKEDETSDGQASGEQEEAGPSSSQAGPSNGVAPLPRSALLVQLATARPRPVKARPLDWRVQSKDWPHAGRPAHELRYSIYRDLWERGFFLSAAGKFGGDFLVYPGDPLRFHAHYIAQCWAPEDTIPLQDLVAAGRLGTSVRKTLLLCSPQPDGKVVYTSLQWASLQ
UniProt P28908: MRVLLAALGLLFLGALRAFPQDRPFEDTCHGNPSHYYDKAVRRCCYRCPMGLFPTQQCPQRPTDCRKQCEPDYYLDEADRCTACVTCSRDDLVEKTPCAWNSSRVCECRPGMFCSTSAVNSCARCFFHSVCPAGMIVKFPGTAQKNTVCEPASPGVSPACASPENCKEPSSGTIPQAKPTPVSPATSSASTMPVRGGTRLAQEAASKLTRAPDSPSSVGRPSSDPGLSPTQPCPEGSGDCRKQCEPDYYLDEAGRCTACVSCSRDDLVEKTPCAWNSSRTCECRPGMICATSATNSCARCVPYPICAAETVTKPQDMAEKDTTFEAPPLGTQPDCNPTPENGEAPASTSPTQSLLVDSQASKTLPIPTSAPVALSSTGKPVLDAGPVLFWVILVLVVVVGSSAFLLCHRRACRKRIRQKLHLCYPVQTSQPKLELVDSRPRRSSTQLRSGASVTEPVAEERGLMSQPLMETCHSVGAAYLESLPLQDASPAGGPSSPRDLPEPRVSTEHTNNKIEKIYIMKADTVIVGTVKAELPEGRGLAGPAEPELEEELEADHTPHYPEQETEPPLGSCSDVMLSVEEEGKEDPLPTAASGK
UniProt Q86TN4: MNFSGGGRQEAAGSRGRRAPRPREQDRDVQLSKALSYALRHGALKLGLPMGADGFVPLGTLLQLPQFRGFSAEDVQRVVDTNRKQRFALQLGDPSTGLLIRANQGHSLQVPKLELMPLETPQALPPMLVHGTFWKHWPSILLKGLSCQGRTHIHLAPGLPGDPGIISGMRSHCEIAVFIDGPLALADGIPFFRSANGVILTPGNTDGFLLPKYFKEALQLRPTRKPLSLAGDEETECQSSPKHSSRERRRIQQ
UniProt Q8NCE0: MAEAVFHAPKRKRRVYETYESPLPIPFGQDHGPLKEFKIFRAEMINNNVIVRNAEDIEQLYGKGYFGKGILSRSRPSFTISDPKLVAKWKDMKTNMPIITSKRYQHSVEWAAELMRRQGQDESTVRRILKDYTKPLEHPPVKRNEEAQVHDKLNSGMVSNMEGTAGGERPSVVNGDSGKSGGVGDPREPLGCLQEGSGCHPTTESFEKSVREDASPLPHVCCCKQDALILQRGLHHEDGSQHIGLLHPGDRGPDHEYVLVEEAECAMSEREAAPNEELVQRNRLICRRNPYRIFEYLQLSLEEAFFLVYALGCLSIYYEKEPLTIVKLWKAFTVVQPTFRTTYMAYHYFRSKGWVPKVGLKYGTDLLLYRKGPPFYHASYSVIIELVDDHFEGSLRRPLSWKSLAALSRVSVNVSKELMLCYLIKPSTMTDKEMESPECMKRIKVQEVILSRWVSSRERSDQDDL
UniProt Q96FX7: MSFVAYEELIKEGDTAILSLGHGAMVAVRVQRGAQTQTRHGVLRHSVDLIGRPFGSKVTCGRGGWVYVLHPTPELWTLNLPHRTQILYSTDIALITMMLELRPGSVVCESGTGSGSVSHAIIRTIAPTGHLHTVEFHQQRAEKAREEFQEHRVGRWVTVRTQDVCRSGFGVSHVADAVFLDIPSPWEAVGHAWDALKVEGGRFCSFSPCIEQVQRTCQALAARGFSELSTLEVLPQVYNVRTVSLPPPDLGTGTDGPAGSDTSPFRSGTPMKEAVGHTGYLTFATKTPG

Target	log2 fold change
TP53BP2 isoform 3 (UniProt Q13625)	inactive: -0.221
TRIP11 (UniProt Q15643)	inactive: -0.306
TPP2 (UniProt Q5VZU9)	inactive: -0.02
TPPP3 (UniProt Q9BW30)	inactive: 0.021
TPK1 (UniProt Q9H3S4)	inactive: -0.136
TRIM4 (UniProt Q9C037)	inactive: -0.033
TRIM23 (UniProt P36406)	inactive: 0.115
TRPM7 (UniProt Q96QT4)	inactive: 0.03
TRIM24 (UniProt O15164)	inactive: 0
TRAPPC1 (UniProt Q9Y5R8)	inactive: -0.057
TRAPPC11 (UniProt Q7Z392)	inactive: -0.079
TSEN34 (UniProt Q9BSV6)	inactive: -0.041
TRPC4AP (UniProt Q8TEL6)	inactive: -0.094
TP53BP1 isoform 2 (UniProt Q12888)	inactive: 0.002
TNFRSF8 (UniProt P28908)	inactive: 0.029
TRMT10C (UniProt Q7L0Y3)	inactive: 0.017
TRIO (UniProt O75962)	inactive: -0.171
TRPT1 isoform 4 (UniProt Q86TN4)	inactive: -0.105
TRABD (UniProt Q9H4I3)	active: 0.597
TRIP10 isoform 2 (UniProt Q15642)	inactive: 0.309
TSEN2 (UniProt Q8NCE0)	inactive: -0.074
TRMT61A (UniProt Q96FX7)	inactive: -0.093

Individual results from the list:
Entry of TRPM7 (UniProt Q96QT4) under log2 fold change: inactive: 0.03
Entry of TSEN2 (UniProt Q8NCE0) under log2 fold change: inactive: -0.074
